Source: PubChem BioAssay AID488837 (National Center for Advancing Translational Sciences (NCATS), 2010)
Among all 330,000 compounds or so, about 20 (0.006%) were called active. The inconclusive results got no clear call from the source; some entries with a clear call stand among them for comparison. The call rests on the fitted dose curve; in most records, active means well fitted inhibition curve with a large enough effect; inconclusive means small, poorly fitted or top-dose-only effect, or effect the other way; inactive means flat fitted curve, though single readings scatter. Potencies of inconclusive entries are doubtful fits and often do not repeat.

Amino acid sequences for entries named in this document (tags omitted). A change or cut given only in a name is not applied to a line headed by its entry.
UniProt O00167: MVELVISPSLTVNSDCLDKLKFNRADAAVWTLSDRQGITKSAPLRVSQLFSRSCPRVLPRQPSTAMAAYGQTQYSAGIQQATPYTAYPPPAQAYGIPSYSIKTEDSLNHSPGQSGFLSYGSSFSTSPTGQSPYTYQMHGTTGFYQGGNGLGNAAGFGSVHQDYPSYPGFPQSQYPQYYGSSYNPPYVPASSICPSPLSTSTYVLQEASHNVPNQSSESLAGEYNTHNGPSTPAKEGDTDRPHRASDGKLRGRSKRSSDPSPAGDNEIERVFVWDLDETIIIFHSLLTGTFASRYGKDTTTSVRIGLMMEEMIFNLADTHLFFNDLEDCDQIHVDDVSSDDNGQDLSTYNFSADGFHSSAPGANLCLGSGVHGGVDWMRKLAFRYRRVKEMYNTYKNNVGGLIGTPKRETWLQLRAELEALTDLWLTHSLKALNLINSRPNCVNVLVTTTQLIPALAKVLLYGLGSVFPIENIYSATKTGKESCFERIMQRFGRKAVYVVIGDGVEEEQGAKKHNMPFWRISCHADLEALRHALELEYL

Target: Protein phosphatase EYA2 (Homo sapiens) (UniProt O00167)
Experiment: qHTS Assay for Inhibitors of the Phosphatase Activity of Eya2
Conditions: recombinant Eya2, OMFP fluorescence dephosphorylation (OMFP is methylfluorescein phosphate); activity, negative = inhibition: at 76.9 µM (top of the series) unless noted
Method in brief: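 Eya2 (0.2 uM) preincubated 10 min at ambient with compound, then OMFP substrate added at 50 uM; 10 min reaction in 50 mM HEPES pH 7.5, 50 mM NaCl, 5 uM MgCl2, 0.05% BSA, 1 mM DTT. Fluorescence read at Ex 485/Em 525 nm.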
On the % scale 0 is the no-effect control and ±100 the full control effect; potency means the concentration at half of the fitted maximal effect.

Structure (SMILES) | activity, negative = inhibition | Potency
CC(C)NC(NC(=O)Cc1ccccc1)C(Cl)(Cl)Cl (configuration not stated) | inconclusive: 39.8% [activator] | 
Cc1ccc(-n2nc(-c3ccco3)cc2C(=O)O)cc1 |  | inactive
O=S(=O)(Nc1ccon1)c1ccc(Br)cc1 |  | inconclusive: 25.1 µM [inhibitor, single point]
COc1ccc(CNC(=O)C[C@H]2C[C@H](C(=O)N3CCCCC3)[C@@]3(CCc4ccccc4)c4[nH]c5ccc(Cl)cc5c4CCN3C2=O)cc1OC |  | inactive
CCOC(=O)/C=C(\C)Sc1cc(O)c2ccccc2c1O |  | inactive
CC(=O)Nc1ccc(S(=O)(=O)Nc2ccc(-n3cnnn3)cc2)cc1 |  | inconclusive: 100 µM [inhibitor, single point]
CC(=O)NS(=O)(=O)c1cccnc1Nc1cccc(Cl)c1C |  | inactive
CCS(=O)(=O)Nc1cccc(-c2nc3cccnc3s2)c1 |  | inactive
S=C(NCCCc1ccccc1)NC1CCCCC1 |  | inactive
COc1ccc2cc3c(N)nn(C(=O)c4ccccc4Cl)c3nc2c1 | inconclusive: 57.1% [activator] | 
CCCOc1ccc2nc(C)c(CCC)c(SC(=N)N)c2c1 |  | inconclusive: 50.1 µM [inhibitor, partial curve]
CCN(CC)S(=O)(=O)c1cccc(NC(=O)CCNC(=O)c2ccccc2Cl)c1 |  | inconclusive: 22.4 µM [inhibitor, single point]
COc1ccc(-c2csc(-c3ccc(O)cc3)n2)cc1 |  | inactive
CCN(CC)CCCNC(=O)C1c2ccccc2C(=O)N(CCOC)C1c1ccc(F)cc1 (configuration not stated) |  | inconclusive: 112 µM [inhibitor, single point]
COc1ccc(NC(=O)c2nc(S(=O)(=O)Cc3cccc(C)c3)ncc2Cl)c(OC)c1 |  | inconclusive: 22.4 µM [inhibitor, single point]
O=C1CSC(c2ccccc2)N1CC12CC3CC(CC(O)(C3)C1)C2 (configuration not stated) |  | inconclusive: 355 µM [inhibitor, partial curve]
Cc1cc(C)n(CC(O)CN(c2ccccc2)S(=O)(=O)c2ccccc2)n1 (configuration not stated) |  | inactive
O=C1CCc2cc(S(=O)(=O)NCc3ccccc3Cl)cc3c2N1CC3 |  | inactive
O=C(CCn1ccc2cc(S(=O)(=O)N3CCCC3)ccc21)NCc1ccccc1F |  | inactive
CN(C)CCNc1nc2sc3c(c2c(=O)n1-c1ccc(F)cc1)CCCCC3 |  | inconclusive: 112 µM [inhibitor, single point]
Cc1ccc(Cn2c(=O)n(C)c(=O)c3sccc32)cc1 |  | inconclusive: 22.4 µM [inhibitor, single point]
O=C(NCc1cccc(Cl)c1)C1CCC(=O)N(CCCN2CCOCC2)C1 (configuration not stated) |  | inconclusive: 89.1 µM [inhibitor, single point]
COc1ccc(C(=O)N(C)C2CCCCC2)cc1S(=O)(=O)N1CCOCC1 |  | inconclusive: 100 µM [activator, partial curve]
Cc1ccc(C(=O)NCc2nnc(SCC(=O)NC(C)c3ccccc3)n2C)cc1 (configuration not stated) |  | inconclusive: 100 µM [inhibitor, single point]

Structure (SMILES) | activity, negative = inhibition | Potency
COc1ccc(-n2nc3c(c2NC(=O)COc2ccccc2)CS(=O)(=O)C3)cc1 |  | inactive
CC1CN(S(=O)(=O)c2cccc(C(F)(F)F)c2)CC(C)O1 (configuration not stated) |  | inconclusive: 100 µM [inhibitor, partial curve, poor fit]
Cc1ccc(C(=O)N/C(=C\c2ccc(-c3cc(Cl)ccc3Cl)o2)C(=O)NCc2cccnc2)cc1 |  | inconclusive: 63.1 µM [inhibitor, partial curve]
COc1ccc(C)cc1S(=O)(=O)N1CCN(C/C=C/c2ccccc2)CC1 |  | inconclusive: 20 µM [inhibitor, single point]
O=C(Cn1ncc(Cl)c(Cl)c1=O)N1CCc2ccccc21 |  | inconclusive: 56.2 µM [inhibitor, partial curve, poor fit]
O=C1CSC(c2cccc([N+](=O)[O-])c2)N1Cc1ccccc1 (configuration not stated) |  | inconclusive: 562 µM [inhibitor, single point]
O=[N+]([O-])c1ccccc1OCc1nc(-c2cccs2)no1 |  | inconclusive: 100 µM [inhibitor, single point]
COCCNC(=O)c1c[nH]c2ccc(S(=O)(=O)N(C)c3ccc(C)c(C)c3)cc2c1=O |  | inactive
Nn1c(Cc2ccccc2)nc2cc(Cl)ccc2c1=O |  | inconclusive: 22.4 µM [inhibitor, single point]
C(=N\NC1=Nc2cccc3cccc1c23)/c1ccccn1 |  | inactive
Cc1ccc(-c2n[nH]c(=S)n2/N=C/c2cccn2C)cc1 |  | inactive
Cn1nc([N+](=O)[O-])nc1Sc1nnnn1-c1cccc(C(=O)O)c1 |  | inconclusive: 112 µM [inhibitor, single point]
O=C(CNC(=O)c1n[nH]c2ccccc12)Nc1ccc(F)c(F)c1F |  | inactive
CC(=O)N1CC(=O)N(c2ccccc2)C1=O |  | inconclusive: 17.8 µM [inhibitor, single point]
O=[N+]([O-])c1cc2c(cc1CN1CCN(c3ccc(F)cc3)CC1)OCO2 |  | inconclusive: 89.1 µM [inhibitor, single point]
COc1ccc2c(n1)Sc1nc3ccccc3nc1N2 |  | inactive
O=C(NCC1CCCN(Cc2ccc3c(c2)OCCO3)C1)c1ccc2c(c1)OCO2 (configuration not stated) |  | inconclusive: 282 µM [inhibitor, single point]
O=C(c1ccccc1Cl)N1CCN(C(=O)C2CCCO2)CC1 (configuration not stated) |  | inconclusive: 8.91 µM [inhibitor, partial curve, poor fit]
CCOc1ccc(/C=N/NC(=O)c2nnn(-c3nonc3N)c2-c2cccs2)cc1 |  | inconclusive: 7080 µM [inhibitor, partial curve]
COc1ccc(CC(=O)Nc2sc3c(c2C#N)CC(C)(C)NC3(C)C)cc1OC |  | inconclusive: 17.8 µM [inhibitor, single point]
O=c1c2ccccc2[nH]c(=S)n1CCCN1CCOCC1 |  | inactive
CCOC(=O)Cc1csc(NC(=O)CSc2nnnn2-c2ccc(C)c(C)c2)n1 |  | inactive
COC(=O)CCC(=O)NC(=S)Nc1sc(C)c(C)c1C(N)=O |  | inactive

Ordered by heavy-atom count (largest number first): some entries from above.
Structure (SMILES) | activity, negative = inhibition | Potency
Cc1ccc(C(=O)N/C(=C\c2ccc(-c3cc(Cl)ccc3Cl)o2)C(=O)NCc2cccnc2)cc1 |  | inconclusive: 63.1 µM [inhibitor, partial curve]
COCCNC(=O)c1c[nH]c2ccc(S(=O)(=O)N(C)c3ccc(C)c(C)c3)cc2c1=O |  | inactive
O=C(NCC1CCCN(Cc2ccc3c(c2)OCCO3)C1)c1ccc2c(c1)OCO2 (configuration not stated) |  | inconclusive: 282 µM [inhibitor, single point]
CCOC(=O)Cc1csc(NC(=O)CSc2nnnn2-c2ccc(C)c(C)c2)n1 |  | inactive
COc1ccc(C)cc1S(=O)(=O)N1CCN(C/C=C/c2ccccc2)CC1 |  | inconclusive: 20 µM [inhibitor, single point]
O=[N+]([O-])c1cc2c(cc1CN1CCN(c3ccc(F)cc3)CC1)OCO2 |  | inconclusive: 89.1 µM [inhibitor, single point]
O=C(CNC(=O)c1n[nH]c2ccccc12)Nc1ccc(F)c(F)c1F |  | inactive
COC(=O)CCC(=O)NC(=S)Nc1sc(C)c(C)c1C(N)=O |  | inactive
CC1CN(S(=O)(=O)c2cccc(C(F)(F)F)c2)CC(C)O1 (configuration not stated) |  | inconclusive: 100 µM [inhibitor, partial curve, poor fit]
COc1ccc2c(n1)Sc1nc3ccccc3nc1N2 |  | inactive
CC(=O)N1CC(=O)N(c2ccccc2)C1=O |  | inconclusive: 17.8 µM [inhibitor, single point]
